This note sets out measurements from paper PMC3161984.

By UniProt entry, the sequences of proteins in these tests, tags left out.
UniProt Q09472: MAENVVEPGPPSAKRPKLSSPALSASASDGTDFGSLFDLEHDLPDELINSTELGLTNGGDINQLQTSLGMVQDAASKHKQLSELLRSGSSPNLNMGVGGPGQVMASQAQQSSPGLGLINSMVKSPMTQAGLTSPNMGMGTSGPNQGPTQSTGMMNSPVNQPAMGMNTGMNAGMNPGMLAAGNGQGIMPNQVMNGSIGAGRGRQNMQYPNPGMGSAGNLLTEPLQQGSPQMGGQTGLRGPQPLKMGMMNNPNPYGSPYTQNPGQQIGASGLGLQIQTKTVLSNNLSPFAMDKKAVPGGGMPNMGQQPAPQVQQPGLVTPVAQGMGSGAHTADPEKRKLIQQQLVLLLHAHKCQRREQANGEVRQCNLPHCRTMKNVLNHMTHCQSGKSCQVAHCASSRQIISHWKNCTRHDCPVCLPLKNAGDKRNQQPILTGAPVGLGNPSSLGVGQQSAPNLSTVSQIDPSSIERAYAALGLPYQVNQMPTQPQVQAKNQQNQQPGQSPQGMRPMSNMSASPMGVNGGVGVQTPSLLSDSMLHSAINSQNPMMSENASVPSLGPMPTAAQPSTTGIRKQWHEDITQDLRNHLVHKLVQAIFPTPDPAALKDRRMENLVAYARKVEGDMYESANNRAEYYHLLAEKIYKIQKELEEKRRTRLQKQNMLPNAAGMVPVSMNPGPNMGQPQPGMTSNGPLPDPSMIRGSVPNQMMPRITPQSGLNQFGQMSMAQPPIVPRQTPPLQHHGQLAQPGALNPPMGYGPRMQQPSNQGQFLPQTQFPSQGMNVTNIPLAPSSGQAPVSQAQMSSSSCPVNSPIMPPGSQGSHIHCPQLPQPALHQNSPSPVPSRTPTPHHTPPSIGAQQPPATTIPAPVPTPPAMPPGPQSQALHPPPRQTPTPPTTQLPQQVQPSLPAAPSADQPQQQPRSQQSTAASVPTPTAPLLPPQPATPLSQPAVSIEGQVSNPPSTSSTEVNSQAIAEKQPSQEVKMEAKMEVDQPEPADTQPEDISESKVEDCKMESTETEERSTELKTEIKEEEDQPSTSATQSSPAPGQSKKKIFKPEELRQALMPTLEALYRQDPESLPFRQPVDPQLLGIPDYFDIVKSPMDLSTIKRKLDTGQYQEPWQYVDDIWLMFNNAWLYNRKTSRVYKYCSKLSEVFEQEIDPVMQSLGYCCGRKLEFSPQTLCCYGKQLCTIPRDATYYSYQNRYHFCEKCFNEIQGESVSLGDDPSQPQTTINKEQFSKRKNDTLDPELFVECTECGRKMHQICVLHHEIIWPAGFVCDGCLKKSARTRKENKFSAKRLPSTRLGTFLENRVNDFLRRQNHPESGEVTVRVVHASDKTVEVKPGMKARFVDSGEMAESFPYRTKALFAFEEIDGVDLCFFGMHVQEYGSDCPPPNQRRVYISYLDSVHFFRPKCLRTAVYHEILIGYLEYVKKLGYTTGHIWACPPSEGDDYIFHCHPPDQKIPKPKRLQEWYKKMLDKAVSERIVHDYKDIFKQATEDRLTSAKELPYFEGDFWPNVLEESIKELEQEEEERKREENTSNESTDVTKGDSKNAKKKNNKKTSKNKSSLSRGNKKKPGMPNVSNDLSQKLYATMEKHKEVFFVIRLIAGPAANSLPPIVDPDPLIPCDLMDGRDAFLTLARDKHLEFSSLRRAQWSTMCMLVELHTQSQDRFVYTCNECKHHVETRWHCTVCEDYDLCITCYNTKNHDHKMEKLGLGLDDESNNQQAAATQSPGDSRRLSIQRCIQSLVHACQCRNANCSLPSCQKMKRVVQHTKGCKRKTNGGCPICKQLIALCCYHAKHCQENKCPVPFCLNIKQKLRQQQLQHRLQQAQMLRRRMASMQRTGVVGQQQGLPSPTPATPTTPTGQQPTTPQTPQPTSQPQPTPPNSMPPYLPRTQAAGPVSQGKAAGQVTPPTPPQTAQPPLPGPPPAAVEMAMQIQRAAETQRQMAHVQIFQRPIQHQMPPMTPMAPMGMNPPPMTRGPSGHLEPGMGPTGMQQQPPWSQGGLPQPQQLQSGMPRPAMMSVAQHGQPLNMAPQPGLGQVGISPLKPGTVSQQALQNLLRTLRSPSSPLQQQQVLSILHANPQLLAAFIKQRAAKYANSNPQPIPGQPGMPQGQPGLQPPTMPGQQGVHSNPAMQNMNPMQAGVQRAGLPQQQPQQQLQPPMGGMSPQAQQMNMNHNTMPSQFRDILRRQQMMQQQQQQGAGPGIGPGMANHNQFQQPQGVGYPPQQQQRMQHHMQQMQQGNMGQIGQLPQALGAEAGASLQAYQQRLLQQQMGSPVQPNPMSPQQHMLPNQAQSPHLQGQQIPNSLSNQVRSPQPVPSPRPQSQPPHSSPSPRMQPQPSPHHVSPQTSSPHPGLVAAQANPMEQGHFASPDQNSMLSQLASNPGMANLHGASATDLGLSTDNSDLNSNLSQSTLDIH
UniProt P06428: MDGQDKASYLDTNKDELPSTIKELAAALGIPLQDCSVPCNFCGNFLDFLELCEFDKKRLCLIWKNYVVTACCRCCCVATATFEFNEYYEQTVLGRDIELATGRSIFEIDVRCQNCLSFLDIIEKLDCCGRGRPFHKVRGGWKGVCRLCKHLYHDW

These are yes or no findings as the source states them, for the method shown. In cells and extracts the contact can be indirect. Some results given as binding are weak or reduced against the parent protein; the word gives no strength.

Experiment [1] concerns the target histone acetyltransferase p300 (endogenous) (human (endogenous in HFKs)) (UniProt Q09472). As to the kind of experiment: co-IP.
The target of experiment [2] is C-terminally HA-tagged E6 protein of β-HPV type 8 (human papillomavirus type 8) (UniProt P06428). As to the kind of experiment: co-IP.
Experiment [3] has as its target GST-tagged E6 protein from β-HPV type 8 (human papillomavirus type 8) (UniProt P06428). Kind of experiment: pull-down; only the target purified.

On to “C-terminally HA-tagged E6 protein of β-HPV type 8 (from UniProt P06428 1-155)”, for which the binding entry in experiment [1] is “binds”. Turning to “histone acetyltransferase p300 (endogenous) (from UniProt Q09472 1-2414)”, the binding entry in experiment [2] and in experiment [3] was “binds” each time.
